Experimental data reported in PubChem BioAssay AID328 (DTP/NCI, 2004).
The list is a part of this screen's results and no random one: it gathers tests that were run many times, whatever their T/C, doses with no T/C, and many T/C values between a quarter and a half above the control. Other doses and runs of a compound stand elsewhere. T/C: endpoint of the treated group in % of that of the vehicle group. Some doses have a count of surviving animals in place of a T/C: the source files T/C as zero there, which appears to mark a toxic dose or a test without result, not a measured value. Some doses without a T/C left all or most animals alive at the check, yet need not have been tolerated: survival well below the control is almost never listed, so the zero probably covers shortened survival too. Counts of survivors are from the toxicity check (mostly the fifth day) where no day follows; animals may have died later. Schedule codes are those of the source, read here as Q, the interval in days (D) or hours (H), X, the number of doses. Some entries were tested several times; their values stand side by side, smallest first. Where survival is the endpoint, this PubChem deposit counts one and a half times the control or more as active, and values a quarter to a half above the control carry no call in these data; other NCI protocols may use other cut-offs. Some T/C values carry the count of animals alive at the toxicity check (mostly the fifth day); where none is given, no animal had died by that day.

Test system: BDF1 mice, P388 leukemia ip, median survival T/C
Assay: NCI In Vivo Anticancer Drug Screen. Data for tumor model P388 Leukemia (intraperitoneal) in B6D2F1 (BDF1) mice
Details: T/C endpoint: median survival time, higher T/C = longer survival
Summary of the method: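 Steps: implant the tumour, treat one group with compound and another with vehicle, record survival, then divide treated by control.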

[1] = dose: 50.0 mg/kg/injection, schedule: Q01DX009 (ip), vehicle: saline with Tween-80
[2] = dose: 200.0 mg/kg/injection, schedule: Q01DX009 (ip), vehicle: saline with Tween-80
[3] = dose: 50.0 mg/kg/injection, schedule: Q01DX009 (ip), vehicle: water
[4] = dose: 100.0 mg/kg/injection, schedule: Q01DX009 (ip), vehicle: water
[5] = dose: 200.0 mg/kg/injection, schedule: Q01DX009 (ip), vehicle: saline

With `CCCNC1=C(C)C(=O)C2=C(C1=O)[C@H](COC(N)=O)[C@]1(OC)[C@@H]3N[C@@H]3CN21` the T/C (dose: 4.6 mg/kg/injection, schedule: Q01DX009 (ip), vehicle: saline sonified) was 140 % of control and the T/C (dose: 45.0 mg/kg/injection, schedule: Q01DX009 (ip), vehicle: saline) was 138 % of control.
With `Cc1ccc(C(=O)Cl)cc1S(=O)(=O)F` the survivor count (dose: 12.5 mg/kg/injection, schedule: Q01DX009 (ip), vehicle: saline with Tween-80) was 6 of 6, the survivor count [1] was 5 of 6 and the survivor count [2] was 2 of 6. The survivor count (dose: 400.0 mg/kg/injection, schedule: Q04DX003 (ip), vehicle: saline with Tween-80) was 0 of 6.
`CC(=O)N1C2=CCCC3CCCCC23c2ccccc21` (stereo unspecified) was tested, and the T/C [2] was 130 % of control.
`CC1CNC(=O)O1` (stereo unspecified) was tested, and the survivor count (dose: 50.0 mg/kg/injection, schedule: Q04DX003 (ip), vehicle: saline) was 6 of 6.
`CCCc1nc2c(OC)ccc(OC)c2nc1C` was tested, and the survivor count (dose: 225.0 mg/kg/injection, schedule: Q01DX009 (ip), vehicle: Klucel (hydroxypropylcellulose) (HPC)) was 6 of 6 and the survivor count (dose: 335.0 mg/kg/injection, schedule: Q01DX009 (ip), vehicle: Klucel (hydroxypropylcellulose) (HPC)) was 2 of 6.
In the case of `O=P(NC12CC3CC(CC(C3)C1)C2)(N1CC1)N1CC1`, the T/C (dose: 4.4 mg/kg/injection, schedule: Q01DX009 (ip), vehicle: Klucel (hydroxypropylcellulose) (HPC)) is reported as 145 % of control and the survivor count (dose: 15.0 mg/kg/injection, schedule: Q01DX009 (ip), vehicle: Klucel (hydroxypropylcellulose) (HPC)) is reported as 6 of 6.
With `CCOc1cc(/C=N\Nc2nncn2N)c(C)cc1N(CCCl)CCCl` the survivor count (dose: 100.0 mg/kg/injection, schedule: Q01DX009 (ip), vehicle: saline sonified) was 5 of 6, the survivor count (dose: 200.0 mg/kg/injection, schedule: Q01DX009 (ip), vehicle: saline sonified) was 0 of 6 and the survivor count (dose: 400.0 mg/kg/injection, schedule: Q01DX009 (ip), vehicle: saline sonified) was 0 of 6.
`CC(=O)N/N=C(/C)C(=O)O` was tested, and the T/C (dose: 25.0 mg/kg/injection, schedule: Q01DX009 (ip), vehicle: water) was 88, 90 [4 of 6 alive], 105, 116 % of control, the T/C [3] was 104 [5 of 6 alive], 105 [5 of 6 alive], 129 % of control and the survivor count [3] was 6 of 6. For the same compound, the T/C [4] was 88 [4 of 6 alive], 111 [5 of 6 alive], 129 % of control, the survivor count [4] was 3 of 6 and the survivor count (dose: 200.0 mg/kg/injection, schedule: Q01DX009 (ip), vehicle: water) was 1 of 6 and 3 of 6.
With `O=C1CC2c3ccccc3C1C1C(=O)OC(=O)C21` (stereo unspecified) the survivor count (dose: 400.0 mg/kg/injection, schedule: Q04DX003 (ip), vehicle: Klucel (hydroxypropylcellulose) (HPC)) was 1 of 6.
In the case of `C[C@@H]1C[C@@]2(O[C@@H]2C)C(=O)O[C@@H]2CCN3CC=C(COC(=O)[C@]1(C)O)[C@H]23`, the survivor count (dose: 80.0 mg/kg/injection, schedule: Q01DX010 (ip), vehicle: carboxymethylcellulose (CMC)) is reported as 2 of 6.
`CCC1OCCN1C(C)C` (stereo unspecified) was tested, and the survivor count [5] was 6 of 6.
`CCCCNC(C)C1(O)Cc2c(O)c3c(c(O)c2C(OC2CC(N)C(O)C(C)O2)C1)C(=O)c1c(OC)cccc1C3=O` (stereo unspecified) was tested, and the T/C (dose: 5.0 mg/kg/injection, schedule: Q01DX009 (ip), vehicle: water) was 146 % of control, the T/C (dose: 80.0 mg/kg/injection, schedule: Q01DX009 (ip), vehicle: water) was 133 % of control and the survivor count (dose: 160.0 mg/kg/injection, schedule: Q01DX009 (ip), vehicle: water) was 5 of 6.
`COc1ccc2cc3[n+](cc2c1OC)CCc1cc2c(cc1-3)OCO2` was tested, and the survivor count (dose: 4.0 mg/kg/injection, schedule: Q01DX010 (ip), vehicle: steroid suspending solution) was 2 of 4, the T/C (dose: 8.0 mg/kg/injection, schedule: Q01DX010 (ip), vehicle: steroid suspending solution) was 140 % of control and the T/C (dose: 12.0 mg/kg/injection, schedule: Q01DX010 (ip), vehicle: saline) was 131 % of control. The survivor count (dose: 24.0 mg/kg/injection, schedule: Q01DX010 (ip), vehicle: saline) was 2 of 6.
In the case of `CCCOn1nnc2cc(Cl)ccc21`, the survivor count [1] is reported as 5 of 6.
For `CNCCOC(=O)/C=C1\CC[C@H]2[C@@H]([C@@H](O)C(=O)[C@@H]3[C@]2(C)CC[C@H](O)[C@]3(C)C(=O)OC)[C@H]1C`, the survivor count (dose: 100.0 mg/kg/injection, schedule: Q01DX009 (ip), vehicle: saline) was 0 of 3, the survivor count [5] was 0 of 3 and the survivor count (dose: 400.0 mg/kg/injection, schedule: Q01DX009 (ip), vehicle: saline) was 0 of 3.
For `CN(C)C1C(=O)C(C(=O)NCN2CCOB(c3ccccc3)OCC2)=C(O)C2(O)C(O)=C3C(=O)C4C(O)=CC=CC4C(C)(O)C3CC12` (stereo unspecified), the survivor count (dose: 100.0 mg/kg/injection, schedule: Q04DX002 (ip), vehicle: saline with Tween-80) was 6 of 6.
